Experimental data: PubChem BioAssay AID743454 (Peter MacCallum Cancer Centre, 2014)

Aim: 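Genes whose loss kills vorinostat-resistant colon cancer cells under vorinostat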 (primary screen)
Cell system: human HCT116-VR colon cancer cells, selected for vorinostat resistance
Reagent: siRNA pool against human genes, 40 nM siRNA pool
Timing: vorinostat for 24 h, read-out about 72 h after transfection
Challenge: vorinostat at 2.5 µM final
Detection: 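Two measures, CellTiter-Fluor viability and luminescent caspase 3/7 activity, each as fold change against same-plate mock wells, mean of duplicates, then screen-wide robust z-score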
Direction: viability robust z-score: higher = more viable cells than screen typical; caspase robust z-score: higher = more caspase 3/7 activity than screen typical
Call rule: 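a knock-down is a hit when classed RV1 or RV2 for lowered viability, or CA1 or CA2 for caspase activation; those lethal without drug were dropped; hits were retested singly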
The deposit covers about 18,000 reagents; below is a random part of them. Over the whole deposit, 450 (2.5%) were called active. 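Single biological run; no consistent viability z cut-off exists, so the class columns, not z-scores, define the calls.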 Entries without a mark were called inactive.

gene symbol | viability hit class | caspase hit class | viability robust z-score | caspase robust z-score
SRPX | no change | no change | 0.93 | -1.33
SPRY2 | no change | no change | 1.16 | -0.42
CD82 | no change | no change | 0.28 | -0.85
OPRPN | no change | no change | 0.88 | -0.96
DOK6 | no change | no change | -0.42 | -1.39
PROZ | no change | no change | 0.29 | -0.42
CMTM6 | no change | no change | -0.46 | -0.4
KLRG2 | no change | no change | -0.46 | -0.54
TMEM183A | no change | no change | -0.6 | -0.84

The list goes on (3 carried over from the part before).
gene symbol | viability hit class | caspase hit class | viability robust z-score | caspase robust z-score
CMTM6 | no change | no change | -0.46 | -0.4
KLRG2 | no change | no change | -0.46 | -0.54
TMEM183A | no change | no change | -0.6 | -0.84
CTSC | no change | no change | -1.46 | 2.02
BECN1 | no change | no change | -0.43 | 1.5
ZNF229 | no change | no change | -0.38 | -0.48
LCORL | no change | no change | -1.61 | 1.58
SMG6 | no change | no change | 0.34 | 1.17
BRINP2 | no change | no change | -0.37 | 0.54
ELAVL1 | no change | no change | 0.36 | -0.22
EID1 | no change | no change | -0.03 | -0.03
NANOG | no change | no change | -0.64 | 3.71
ZNF420 | no change | no change | -0.33 | 0.18
EFNA5 | no change | no change | -1.13 | 1.09
RARA | no change | no change | -0.97 | -0.96
MKLN1 | no change | no change | -0.24 | 0.03
CNTLN | no change | no change | 0.76 | 0.46
